Reference: PubChem BioAssay AID1053208 (Peter MacCallum Cancer Centre, 2014)

- Aim: 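Genes whose silencing cuts survival of bone tumour cells only with doxorubicin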 (primary screen)
- Cell system: mouse osteosarcoma cells, early-passage culture from an engineered mouse model of fibroblastic bone tumour
- Reagent: siRNA pool against mouse genes, 40 nM
- Duration: about 120 h (48 h before drug, then 72 h with drug)
- Conditions: doxorubicin 100 nM for 72 h, roughly 30-40% inhibitory dose
- Measured: 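Luminescent ATP signal taken as viability with or without 100 nM doxorubicin for 72 h; mean of two wells set against non-targeting siRNA and turned into robust z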
- Reading the numbers: viability z-score with doxorubicin: higher = more viable cells under doxorubicin; viability z-score without drug: higher = more viable cells with knock-down alone
- Rule for the call: 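a pool counts as active when its viability z-score with doxorubicin is -2 or below and its z-score without drug lies between -2 and 2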
This is one part, drawn at random, of about 17,000 deposited reagents. 788 of them (4.7%) were called active. 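Calls rest on z-score classes alone; an extra cut-off of viability at most 70% of control was not applied to them.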 A number with no mark means an inactive call. Further read-outs or replicates are left out here.

no.	gene	PubChem SID	combined z-score class	viability z-score with doxorubicin	viability z-score without drug
1	Ktn1	SID152327318	no change with or without drug	-0.67	-1.18
2	Or4c12b	SID152295805	low cell count without drug only	-0.9	-2.02
3	Fgd6	SID152298860	no change with or without drug	0.9	0.51
4	Sectm1a	SID152304566	no change with or without drug	-0.45	-0.51
5	Lpcat4	SID152329003	no change with or without drug	-0.22	0.67
6	Ppp1r35	SID152328090	no change with or without drug	0.67	0.84
7	A830054O04Rik	SID152279341	no change with or without drug	0	0.34
8	Mocs2	SID152304464	no change with or without drug	0.9	1.35
9	Snrpg	SID152341160	low cell count with and without drug	-5.4	-4.72
10	Rpn1	SID152268474	no change with or without drug	-1.57	-0.84
11	Krt4	SID152285358	no change with or without drug	-0.22	0.51
12	Emilin3	SID152261420	no change with or without drug	0	1.85
13	Ccdc134	SID152303413	no change with or without drug	1.12	1.69
14	Ikzf3	SID152311906	high cell count without drug only	1.35	2.53
15	Crtc3	SID152262257	no change with or without drug	-1.35	-1.69
16	Tram1	SID152286806	no change with or without drug	0	0.51
17	Tnfaip1	SID152333217	no change with or without drug	-0.22	-0.34
18	Dnajc1	SID152341197	no change with or without drug	0.56	-0.17
19	Mcm3	SID152342565	no change with or without drug	1.12	0.51
20	Dync2li1	SID152269294	no change with or without drug	-0.11	1.85
21	Naglu	SID152328724	no change with or without drug	1.12	0.67
22	Vpreb1b	SID152318279	no change with or without drug	0.45	0.17
23	Golph3	SID152311604	no change with or without drug	1.12	1.18
24	Dcaf4	SID152326671	no change with or without drug	-1.35	-0.51
25	Engase	SID152309572	low cell count with doxorubicin only (active)	-2.59	-1.18
26	Foxo1	SID152286992	no change with or without drug	0.45	-0.51
27	Shc3	SID152298036	no change with or without drug	-0.45	-0.51
28	Xk	SID152273928	no change with or without drug	-1.35	0.17
29	Acvr2a	SID152260094	no change with or without drug	0.45	0.51
30	Tsga10	SID152275627	no change with or without drug	1.24	-0.17
31	Nxnl2	SID152270542	no change with or without drug	-0.45	0.51
32	Or52a33	SID152305906	no change with or without drug	-0.22	0.34
33	Ncoa6	SID152274441	high cell count with doxorubicin only	2.02	1.52
34	Hoxd4	SID152266315	low cell count with doxorubicin only (active)	-2.47	-0.51
35	Jade1	SID152321014	low cell count with doxorubicin only (active)	-2.47	-0.17
36	Plcb4	SID152319957	high cell count with doxorubicin only	2.02	0.84
37	Or52z14	SID152340472	no change with or without drug	-0.9	-0.17
38	Ece1	SID152287365	no change with or without drug	-0.67	0.17
39	Pth1r	SID152272899	no change with or without drug	0	-1.52
40	Ptger3	SID152275297	no change with or without drug	0.22	-0.34
41	Glyr1	SID152305939	no change with or without drug	0.11	0.67
42	Smug1	SID152272628	no change with or without drug	0.22	-0.17
43	Ttc4	SID152272091	no change with or without drug	1.12	1.85
44	Serpinb9b	SID152261151	no change with or without drug	-0.22	0.51
45	Emid1	SID152281923	no change with or without drug	-0.9	-0.17
46	Cyp3a25	SID152311106	no change with or without drug	0.34	1.85
47	Marveld3	SID152303178	no change with or without drug	-0.11	-0.51
48	Atxn1	SID152340507	no change with or without drug	0	0.34
49	Rnf182	SID152280153	no change with or without drug	0	-0.51
50	Eppin	SID152302336	no change with or without drug	0.79	1.52

In a second layout: results already given
gene	PubChem SID	combined z-score class	viability z-score with doxorubicin	viability z-score without drug
Krt4	SID152285358	no change with or without drug	-0.22	0.51
Emilin3	SID152261420	no change with or without drug	0	1.85
Ccdc134	SID152303413	no change with or without drug	1.12	1.69
Ikzf3	SID152311906	high cell count without drug only	1.35	2.53
Crtc3	SID152262257	no change with or without drug	-1.35	-1.69
Tram1	SID152286806	no change with or without drug	0	0.51
Tnfaip1	SID152333217	no change with or without drug	-0.22	-0.34
